Reference: PubChem BioAssay AID1671190 (National Center for Advancing Translational Sciences (NCATS), 2021)
Screen size: about 580,000 compounds; about 6,100 (1.1%) were called active. Inconclusive means that the source gave no clear call. Such entries were picked first, then a sample of the others. Calls come from the whole dose curve; as a rule, active = well fitted inhibition curve with a large enough effect; inconclusive = small, poorly fitted or top-dose-only effect, or another doubt; inactive = no such curve, though single readings can be large or run the other way. Where the call is inconclusive, the potency comes from a doubtful curve fit.
% is set by controls: 0 for no effect and ±100 for the full control effect; potency is the fitted concentration of half-maximal effect.

Amino acid sequences for entries named in this document (tags omitted). A change or cut given only in a name is not applied to a line headed by its entry.
UniProt P18054: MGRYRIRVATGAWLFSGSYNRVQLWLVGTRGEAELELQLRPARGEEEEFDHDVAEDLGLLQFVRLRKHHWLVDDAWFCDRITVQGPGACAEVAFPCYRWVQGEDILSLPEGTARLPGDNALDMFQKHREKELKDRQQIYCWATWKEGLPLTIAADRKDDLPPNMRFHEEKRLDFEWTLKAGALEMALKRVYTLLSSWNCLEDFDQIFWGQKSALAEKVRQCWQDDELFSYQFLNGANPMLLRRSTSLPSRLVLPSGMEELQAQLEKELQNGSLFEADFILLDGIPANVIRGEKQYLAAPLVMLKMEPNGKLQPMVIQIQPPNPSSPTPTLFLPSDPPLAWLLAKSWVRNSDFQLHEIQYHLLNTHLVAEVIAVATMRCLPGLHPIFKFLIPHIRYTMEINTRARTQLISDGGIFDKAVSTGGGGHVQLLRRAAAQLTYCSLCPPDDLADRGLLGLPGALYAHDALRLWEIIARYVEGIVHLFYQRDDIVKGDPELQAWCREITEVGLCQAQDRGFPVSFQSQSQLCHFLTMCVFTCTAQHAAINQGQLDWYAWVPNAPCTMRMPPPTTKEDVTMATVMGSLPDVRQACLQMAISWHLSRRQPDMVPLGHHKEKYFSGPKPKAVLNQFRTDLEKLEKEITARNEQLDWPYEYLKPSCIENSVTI

The compounds below were run against Polyunsaturated fatty acid lipoxygenase ALOX12 (Homo sapiens) (UniProt P18054) (assay: Primary qHTS assay for inhibitors of human arachidonate 12S-lipoxygenase (ALOX12): Round 2). Details: purified 12hLO, xylenol orange hydroperoxide absorbance; activity change, negative = inhibition: at 108 µM (top of the series) unless noted.
Method in brief: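 Purified human 12hLO at 150 nM in 25 mM Hepes, 0.01% Triton X-100, pH 7.0, preincubated 15 min at room temperature with compound. Reaction started with 40 uM arachidonic acid, 30 min at room temperature. Hydroperoxide measured by Fe-xylenol orange, 573/405 nm absorbance ratio.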
With Cc1ccc(Nc2c(-c3c[nH]c4ccccc34)nc3ccccn23)cc1 the Potency was inconclusive: 22.4 µM [inhibitor, partial curve, poor fit].
c1csc(-c2nn[nH]n2)c1 was tested, and the Potency was inconclusive: 39.8 µM [inhibitor, partial curve, poor fit].
CC(C)Oc1ccccc1-c1nc(SCC(=O)c2ccc(F)cc2)n[nH]1 was tested, and the Potency was inconclusive: 100 µM [inhibitor, partial curve, poor fit].
In the case of CC(=O)NC12CC3CC(C1)CC(C(=O)Nc1cccc(S(=O)(=O)N4CCCCCC4)c1)(C3)C2, the Potency is reported as inconclusive: 50.1 µM [inhibitor, partial curve, poor fit].
In the case of Cc1ccc(CNC(=O)CSc2nc3c(sc4ccccc43)c(=O)n2CCCOC(C)C)cc1, the Potency is reported as inconclusive: 224 µM [inhibitor, partial curve, poor fit].
In the case of CC(C)Sc1nc(N2CCCCC2)c2c(c1C#N)CCCC2, the Potency is reported as “inactive”.
With O=C(CSc1nnc2n1CCCN2)c1ccc([N+](=O)[O-])cc1 the Potency was inconclusive: 100 µM [inhibitor, partial curve, poor fit].
For Cc1cc(=O)oc2cc(OCc3nc(-c4cccc(Cl)c4)no3)ccc12, the Potency was inconclusive: 39.8 µM [inhibitor, partial curve, poor fit].
With CCCCCn1c(N2CCN(Cc3ccc(Br)cc3)CC2)nc2c1c(=O)[nH]c(=O)n2C the Potency was inconclusive: 89.1 µM [inhibitor, single point].
With COc1ccc(C(=O)N2CCCC(CN3CCOCC3)CC2)cc1 (stereo not given) the Potency was “inactive”.
With Cc1cc(Cl)ccc1N=c1ssnc1Cl the Potency was inconclusive: 3.55 µM [inhibitor, full curve, poor fit].
For COc1ccc(/C=C(/NC(=O)c2ccccc2Cl)C(=O)NCCCC(=O)O)cc1, the Potency was inconclusive: 39.8 µM [inhibitor, partial curve, poor fit].
N=C(c1cccc([N+](=O)[O-])c1)N1CCCCCC1 was tested, and the Potency was “inactive”.
In the case of CCOc1ccc(CN=C2NS(=O)(=O)C(c3ccc(C)c(C)c3)=C2C)cc1, the Potency is reported as inconclusive: 31.6 µM [inhibitor, partial curve, poor fit].
For COc1ccc(OC)c(C2=NS(=O)(=O)N(C)C(C(=O)NCc3cccs3)=C2)c1, the Potency was inconclusive: 158 µM [inhibitor, partial curve, poor fit].
In the case of O=C1NC2(CCN(S(=O)(=O)c3ccc(F)cc3)CC2)N=C1c1cccs1, the Potency is reported as “inactive”.
For O=C(CCc1c[nH]c2ccccc12)OCC(=O)c1ccc2ccccc2c1, the Potency was inconclusive: 50.1 µM [inhibitor, partial curve, poor fit].
For Cc1ccc(C)c(-c2nn(CC(=O)N3CCCCC3)c(=O)c3ccccc23)c1, the Potency was “inactive”.
For CCCCc1c(-c2ccccc2OC)ncn1CCc1ccccc1OC, the Potency was “inactive”.
In the case of COc1ccc(NC(=O)c2ccc(N3CCCN(Cc4ccccc4C)C3=O)cc2)cc1, the Potency is reported as inconclusive: 100 µM [inhibitor, single point].
COc1cc(O)c2c(c1)OC(C)(C)CC2=O was tested, and the Potency was “inactive”.
In the case of N#Cc1ccccc1S(=O)(=O)N1CCN(CC(O)COc2ccccc2F)CC1 (stereo not given), the Potency is reported as inconclusive: 4.47 µM [inhibitor, full curve, poor fit].
Cc1ccc(C(=O)N2C(C(=O)NCc3ccccc3)COC23CCN(C(=O)C2CC2)CC3)cc1 (stereo not given) was tested, and the Potency was “inactive”.
For CC(=O)Nc1ccc(S(=O)(=O)NC2(C(F)(F)F)C(=O)Nc3c2c(=O)[nH]c(=O)n3-c2cccc(Cl)c2)cc1 (stereo not given), the Potency was inconclusive: 44.7 µM [inhibitor, partial curve, poor fit].
For COC1CN(c2ccc(C)cc2)C12CCN(C(=O)Cc1cccc(F)c1)CC2 (stereo not given), the Potency was inconclusive: 89.1 µM [inhibitor, single point].
For COc1cc(OC)cc(C(=O)NC(=S)NNC(=O)c2cnccn2)c1, the Potency was active: 50.1 µM.
In the case of CCN(CC)c1ccc(NC2CC(=O)N(CCc3ccc(OC)cc3)C2=O)cc1 (stereo not given), the Potency is reported as inconclusive: 35.5 µM [inhibitor, partial curve, poor fit].
In the case of COc1ccccc1N1CCN(CCCOc2ccc(F)cc2)CC1, the Potency is reported as inconclusive: 1.26 µM [inhibitor, full curve, poor fit].
For CCOc1ccc(CN2CCN(C(=O)c3ccccc3)CC2)cc1, the Potency was inconclusive: 0.355 µM [inhibitor, full curve, poor fit].
In the case of Cc1cccc(-c2nc(CN3CCCC(C(=O)N4CCN(c5cc(Cl)ccc5C)CC4)C3)c(C)o2)c1 (stereo not given), the Potency is reported as inconclusive: 20 µM [inhibitor, partial curve, poor fit].
In the case of COc1ncc(-c2ccc(N3C(c4ccsc4)=Cc4ccc(F)cc4C3CC(C)=O)cc2)cn1 (stereo not given), the Potency is reported as inconclusive: 39.8 µM [inhibitor, partial curve, poor fit].
For CCCN(CCC)CC(=O)Nc1sc2c(c1C(=O)Nc1ccc(OC)cc1)CCC2, the Potency was “inactive”.
In the case of COc1ccccc1C1CC(c2ccc(Br)cc2)=NN1CN1C(=O)C(=O)c2ccccc21 (stereo not given), the Potency is reported as “inactive”.
In the case of CC(C)CN1C(=O)CO[C@H](c2ccc(NC(=O)C3CCC3)cc2)[C@H]1CO, the Potency is reported as “inactive”.
With Cc1oc2c(c(C)cc3o/c(=N/O)c4c(c32)CCCC4)c1C the Potency was inconclusive: 50.1 µM [inhibitor, partial curve, poor fit].
In the case of CCOC(=O)c1sc(N)c(C(=O)Nc2ccccc2)c1C, the Potency is reported as inconclusive: 50.1 µM [inhibitor, partial curve, poor fit].
In the case of Cc1ccc(CNC(=O)C23CN(Cc4ccccc4)CC2C(c2ccc([N+](=O)[O-])cc2)=NO3)o1 (stereo not given), the Potency is reported as inconclusive: 7.08 µM [inhibitor, full curve, poor fit].
In the case of N#CC1C(=O)NC(=O)C(C#N)C12CCCC2 (stereo not given), the Potency is reported as inconclusive: 28.2 µM [inhibitor, single point].
With COc1ccc(CNc2ncnc3c2nc2n3CCCC2)cc1 the Potency was “inactive”.
O=C([C@@H]1C[C@H](F)CN1C(=O)Nc1ccc(Br)cc1)N1CCCCC1 was tested, and the Potency was inconclusive: 3.55 µM [inhibitor, full curve].
In the case of Cc1ccc(Nc2nc(-c3ccccc3)c(C(=O)Nc3cccnc3)s2)cc1, the Potency is reported as “inactive”.
In the case of COc1cccc(C2=CC(c3cc(OC)ccc3OC)n3nnnc3N2)c1 (stereo not given), the Potency is reported as inconclusive: 44.7 µM [inhibitor, partial curve, poor fit].
COC(=O)c1ccccc1NC(=O)CN(c1ccc(C)cc1)S(C)(=O)=O was tested, and the Potency was inconclusive: 44.7 µM [inhibitor, partial curve, poor fit].
With COc1ccc(NC(=O)c2c(C)oc3ccc(O)c(CN4CCC(C)CC4)c23)cc1Cl the activity change, negative = inhibition was inconclusive: -74.2% [inhibitor].
For COc1ccc(-c2nnn(-c3cc(Cl)cc(Cl)c3)c2N)cc1, the Potency was inconclusive: 100 µM [inhibitor, partial curve, poor fit].
In the case of Cc1ccc(C)c(NC(=S)NNC(=O)c2csc3c2CCC(C)C3)c1 (stereo not given), the Potency is reported as inconclusive: 44.7 µM [inhibitor, partial curve, poor fit].
In the case of O=C(Nc1ccc(Cc2ccncc2)cc1)c1ccc([N+](=O)[O-])o1, the Potency is reported as “inactive”.
With C=C(C)c1ccc(C(C)(C)NC(=O)NCc2ccco2)cc1 the activity change, negative = inhibition was inconclusive: -32.1% [inhibitor].
With CCOC(=O)CCCCC(=O)c1[nH]c(=O)[nH]c1CSc1nnc2c3ccccc3n(C(C)C)c2n1 the Potency was “inactive”.
For Cc1cc(-c2n[nH]c(=S)n2/N=C/c2c[nH]c3ccccc23)n[nH]1, the Potency was inconclusive: 3.16 µM [inhibitor, full curve, poor fit].
In the case of COc1ccc2cc(C(=O)NCC3CC3)c(C)nc2c1, the Potency is reported as inconclusive: 12.6 µM [inhibitor, full curve, poor fit].
With CN(C)CCCN(C(=O)COc1ccc(Cl)cc1)c1nc2cc3c(cc2s1)OCCO3 the Potency was inconclusive: 44.7 µM [inhibitor, partial curve, poor fit].
For Cc1ccccc1CN1CCN(Cc2ccccc2C(F)(F)F)CC1, the Potency was inconclusive: 0.282 µM [inhibitor, full curve, poor fit].
In the case of Cc1ccc(NS(=O)(=O)c2ccc(C(=O)NCC(c3ccccc3)N(C)C)cc2)cc1 (stereo not given), the Potency is reported as inconclusive: 44.7 µM [inhibitor, partial curve, poor fit].
COc1ccc2[nH]c3c(c2c1)CCNC3C1CC=C(C)CC1 (stereo not given) was tested, and the Potency was inconclusive: 15.8 µM [inhibitor, full curve, poor fit].
For CC(C)c1ccc(C(NC(=O)c2nn(C)c(=O)c3ccccc23)C(C)C)cc1 (stereo not given), the Potency was inconclusive: 50.1 µM [inhibitor, partial curve, poor fit].
In the case of CCOC(=O)c1c(NC(=O)CSc2nncs2)sc(C)c1C, the Potency is reported as “inactive”.
For COc1nc(C(=O)NCCC(=O)N2CCCCC2)cc2ccccc12, the Potency was inconclusive: 39.8 µM [inhibitor, partial curve, poor fit].
COc1ccc(NC(=O)C2CC(=O)N(Cc3ccccc3)C2)cc1S(=O)(=O)N1CCCCC1 (stereo not given) was tested, and the Potency was “inactive”.
CC(C)c1ccc(CN2CCC(C(=O)NCc3cccnc3)CC2)cc1 was tested, and the Potency was “inactive”.
With CC1(C)Cc2c(sc3ncn4c(=S)[nH]nc4c23)CO1 the Potency was inconclusive: 35.5 µM [inhibitor, partial curve, poor fit].
COC(=O)CCSCC(=O)N1N=C(c2ccc(Br)cc2)CC1c1cccc(OC)c1OC (stereo not given) was tested, and the Potency was inconclusive: 56.2 µM [inhibitor, partial curve, poor fit].
In the case of CCCN(CCC)c1ccc(NC(=O)c2ccccc2Cl)cc1C(=O)O, the Potency is reported as inconclusive: 28.2 µM [inhibitor, single point].
CC(C)n1c(=O)[nH][nH]c1=S was tested, and the Potency was active: 35.5 µM.
In the case of C=CCOc1ccc(CNCc2ccco2)cc1OCC, the Potency is reported as “inactive”.
